In patent US12390441B2, “Immunomodulating o-het/aryl azalides” (Zoetis Services LLC, priority 2020, dated 2025):
For at least one compound, name, drawing or mass did not settle the structure.

System: M. haemolytica (OSU-012103-BHI)
Assay: In vivo bovine lung infection (intratracheal) challenge model
Settings: second intratracheal challenge study

CCCNC[C@]1(O)[C@H](C)O[C@@H](O[C@H]2[C@H](C)[C@@H](O[C@@H]3O[C@H](C)C[C@H](NC)[C@H]3Oc3ccccc3)[C@](C)(O)C[C@@H](C)CN[C@H](C)[C@@H](O)[C@](C)(O)[C@@H](CC)OC(=O)[C@@H]2C)C[C@@]1(C)OC [Example E-112, (2R,3S,4R,5R,8R,10R,11R,12S,13S,14R)-2-ethyl-3,4,10-trihydroxy-13-(((2R,4R,5S,6S)-5-hydroxy-4-methoxy-4,6-dimethyl-5-((propylamino)methyl)tetrahydro-2H-pyran-2-yl)oxy)-3,5,8,10,12,14-hexamethyl-11-(((2S,3R,4S,6R)-6-methyl-4-(methylamino)-3-phenoxytetrahydro-2H-pyran-2-yl)oxy)-1-oxa-6-azacyclopentadecan-15-one]
Mortality (%) (0.01 mg/kg subcutaneous (T02)): 45.8% | Mortality (%) (0.05 mg/kg subcutaneous (T03)): 41.7% | Mortality (%) (0.1 mg/kg subcutaneous (T04)): 20.8%
